Measured values as given in publication doi:10.1101/495432.
No constants are given. Whether binding was seen depends on the method and setting. In cells and extracts the contact can be indirect. Some entries that bind do so weakly or less than the wild type. For some assays here: Where a sequence is shown, tags or fusion partners need not be part of it.

T1: CTCF, endogenously dual-tagged in mESC clone C62 (one allele 3xFLAG-Halo-CTCF, the other allele V5-SNAPf-CTCF) (mouse), Q61164
T1 chain: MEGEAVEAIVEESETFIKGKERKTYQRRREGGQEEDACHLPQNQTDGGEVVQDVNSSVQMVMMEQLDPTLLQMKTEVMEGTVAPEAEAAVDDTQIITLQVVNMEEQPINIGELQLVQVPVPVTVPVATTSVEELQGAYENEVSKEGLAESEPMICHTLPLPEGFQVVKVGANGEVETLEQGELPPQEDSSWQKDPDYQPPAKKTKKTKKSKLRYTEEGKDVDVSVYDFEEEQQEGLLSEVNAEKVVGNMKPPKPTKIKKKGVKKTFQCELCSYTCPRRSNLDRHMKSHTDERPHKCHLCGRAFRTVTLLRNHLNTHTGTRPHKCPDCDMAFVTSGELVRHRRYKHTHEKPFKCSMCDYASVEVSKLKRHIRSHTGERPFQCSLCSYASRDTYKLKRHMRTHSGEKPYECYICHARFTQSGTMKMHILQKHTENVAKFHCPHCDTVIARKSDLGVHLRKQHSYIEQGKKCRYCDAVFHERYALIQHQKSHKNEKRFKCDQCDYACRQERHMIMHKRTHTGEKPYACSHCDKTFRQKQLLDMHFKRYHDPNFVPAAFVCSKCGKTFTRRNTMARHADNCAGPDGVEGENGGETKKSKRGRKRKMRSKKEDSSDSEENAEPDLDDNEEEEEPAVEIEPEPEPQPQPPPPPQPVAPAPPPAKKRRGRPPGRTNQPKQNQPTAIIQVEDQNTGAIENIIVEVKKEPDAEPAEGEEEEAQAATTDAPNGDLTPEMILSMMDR

T2: Halo-wt CTCF (mESC clone C59) (mouse) (UniProt Q61164)
T2 sequence: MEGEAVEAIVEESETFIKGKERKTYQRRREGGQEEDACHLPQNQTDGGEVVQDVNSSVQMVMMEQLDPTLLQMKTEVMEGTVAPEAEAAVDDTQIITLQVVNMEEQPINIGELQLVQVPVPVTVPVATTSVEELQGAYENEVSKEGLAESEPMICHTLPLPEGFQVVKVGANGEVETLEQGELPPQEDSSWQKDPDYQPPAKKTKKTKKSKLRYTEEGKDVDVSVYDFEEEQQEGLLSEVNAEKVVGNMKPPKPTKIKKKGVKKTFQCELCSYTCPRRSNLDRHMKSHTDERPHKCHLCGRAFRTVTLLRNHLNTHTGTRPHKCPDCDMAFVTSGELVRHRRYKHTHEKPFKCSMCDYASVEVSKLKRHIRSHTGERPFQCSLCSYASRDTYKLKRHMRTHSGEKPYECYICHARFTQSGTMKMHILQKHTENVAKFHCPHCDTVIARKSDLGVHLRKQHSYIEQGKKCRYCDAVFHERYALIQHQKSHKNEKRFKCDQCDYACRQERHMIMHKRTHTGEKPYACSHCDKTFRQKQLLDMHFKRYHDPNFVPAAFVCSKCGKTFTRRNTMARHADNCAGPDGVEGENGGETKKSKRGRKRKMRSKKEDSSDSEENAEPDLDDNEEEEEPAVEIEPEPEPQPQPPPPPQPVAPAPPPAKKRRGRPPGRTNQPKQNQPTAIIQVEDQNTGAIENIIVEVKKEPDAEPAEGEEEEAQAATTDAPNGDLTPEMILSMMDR

T3: Halo-ΔRBR CTCF (mESC clone C59D2 ΔRBR) (mouse) (UniProt Q61164)
T3 sequence: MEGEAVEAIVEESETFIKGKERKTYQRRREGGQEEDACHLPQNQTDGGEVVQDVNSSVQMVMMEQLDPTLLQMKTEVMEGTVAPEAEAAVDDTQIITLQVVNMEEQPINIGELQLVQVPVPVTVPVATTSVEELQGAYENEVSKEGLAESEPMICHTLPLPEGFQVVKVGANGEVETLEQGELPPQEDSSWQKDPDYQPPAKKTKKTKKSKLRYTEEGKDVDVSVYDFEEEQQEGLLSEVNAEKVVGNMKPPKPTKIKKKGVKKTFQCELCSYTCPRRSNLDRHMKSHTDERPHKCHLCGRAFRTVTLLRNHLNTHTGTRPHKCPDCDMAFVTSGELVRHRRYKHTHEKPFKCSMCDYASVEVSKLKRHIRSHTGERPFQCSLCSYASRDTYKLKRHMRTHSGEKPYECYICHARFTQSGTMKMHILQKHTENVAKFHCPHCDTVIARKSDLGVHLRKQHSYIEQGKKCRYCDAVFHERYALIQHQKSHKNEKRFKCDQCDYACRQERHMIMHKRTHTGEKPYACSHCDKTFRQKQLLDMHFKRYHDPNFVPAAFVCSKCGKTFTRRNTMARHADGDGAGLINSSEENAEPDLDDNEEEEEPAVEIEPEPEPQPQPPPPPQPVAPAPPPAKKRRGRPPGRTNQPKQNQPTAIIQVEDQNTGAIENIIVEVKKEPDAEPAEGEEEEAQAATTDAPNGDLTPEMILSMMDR


Tests used:
Test in all cases: co-IP
[1] = target: T1, CTCF, endogenously dual-tagged in mESC …; conditions: remark: other sources report otherwise
[2] = target: T2, Halo-wt CTCF (mESC clone C59) (mouse)
[3] = target: T3, Halo-ΔRBR CTCF (mESC clone C59D2 ΔRBR) (mouse)

Row | Binder | binding [1] | binding [2] | binding [3]
1 | CTCF, endogenously dual-tagged in mESC clone C62 (one allele 3xFLAG-Halo-CTCF, the other allele V5-SNAPf-CTCF), Q61164 1-736 (protein) MEGEAVEAIVEESETFIKGKERKTYQRRREGGQEEDACHLPQNQTDGGEVVQDVNSSVQMVMMEQLDPTLLQMKTEVMEGTVAPEAEAAVDDTQIITLQVVNMEEQPINIGELQLVQVPVPVTVPVATTSVEELQGAYENEVSKEGLAESEPMICHTLPLPEGFQVVKVGANGEVETLEQGELPPQEDSSWQKDPDYQPPAKKTKKTKKSKLRYTEEGKDVDVSVYDFEEEQQEGLLSEVNAEKVVGNMKPPKPTKIKKKGVKKTFQCELCSYTCPRRSNLDRHMKSHTDERPHKCHLCGRAFRTVTLLRNHLNTHTGTRPHKCPDCDMAFVTSGELVRHRRYKHTHEKPFKCSMCDYASVEVSKLKRHIRSHTGERPFQCSLCSYASRDTYKLKRHMRTHSGEKPYECYICHARFTQSGTMKMHILQKHTENVAKFHCPHCDTVIARKSDLGVHLRKQHSYIEQGKKCRYCDAVFHERYALIQHQKSHKNEKRFKCDQCDYACRQERHMIMHKRTHTGEKPYACSHCDKTFRQKQLLDMHFKRYHDPNFVPAAFVCSKCGKTFTRRNTMARHADNCAGPDGVEGENGGETKKSKRGRKRKMRSKKEDSSDSEENAEPDLDDNEEEEEPAVEIEPEPEPQPQPPPPPQPVAPAPPPAKKRRGRPPGRTNQPKQNQPTAIIQVEDQNTGAIENIIVEVKKEPDAEPAEGEEEEAQAATTDAPNGDLTPEMILSMMDR | binds |  | 
2 | Rad21 (cohesin subunit) (protein, UniProt Q61550) MFYAHFVLSKRGPLAKIWLAAHWDKKLTKAHVFECNLESSVESIISPKVKMALRTSGHLLLGVVRIYHRKAKYLLADCNEAFIKIKMAFRPGVVDLPEENREAAYNAITLPEEFHDFDQPLPDLDDIDVAQQFSLNQSRVEEITMREEVGNISILQENDFGDFGMDDREIMREGSAFEDDDMLVSTSASNLLLEPEQSTSNLNEKMNHLEYEDQYKDDNFGEGNDGGILDDKLISNNDGGIFDDPPALSEAGVMLPEQPAHDDMDEDDNGSLGGPDSPDSVDPVEPMPTMTDQTTLVPNEEEAFALEPIDITVKETKAKRKRKLIVDSVKELDSKTIRAQLSDYSDIVTTLDLAPPTKKLMMWKETGGVEKLFFLPAQPLWNNRLLKLFTRCLTPLVPEDLRKRRKGGEADNLDEFLKEFENPEVPREEQQPQQQQPQPQRDVIDEPIIEEPSRLQDSVMEASRTTIEESAMPPPPPQGVKRKAGQIDPEPSIPPQQVEQMEIPPVELPPEEPPNICQLIPELELLPEKEKEKEKEKEEEEEEEDEDASGGDQDQEERRWNKRTQQMLHGLQRALAKTGAESISLLELCRNTNRKQAAAKFYSFLVLKKQQAIELTQEEPYSDIIATPGPRFHII |  | binds | binds
3 | Smc1a (cohesin subunit) (protein, UniProt Q9CU62 1-1233) MGFLKLIEIENFKSYKGRQIIGPFQRFTAIIGPNGSGKSNLMDAISFVLGEKTSNLRVKTLRDLIHGAPVGKPAANRAFVSMVYSEEGAEDRTFARVIVGGSSEYKINNKVVQLHEYSEELEKLGILIKARNFLVFQGAVESIAMKNPKERTALFEEISRSGELAQEYDKRKKEMVKAEEDTQFNYHRKKNIAAERKEAKQEKEEADRYQRLKDEVVRAQVQLQLFKLYHNEVEIEKLNKELASKNKEIEKDKKRMDKVEDELKEKKKELGKMMREQQQIEKEIKEKDSELNQKRPQYIKAKENTSHKIKKLEAAKKSLQNAQKHYKKRKGDMDELEKEMLSVEKARQEFEERMEEESQSQGRDLTLEENQVKKYHRLKEEASKRAATLAQELEKFNRDQKADQDRLDLEERKKVETEAKIKQKLREIEENQKRIEKLEEYITTSKQSLEEQKKLEGELTEEVEMAKRRIDEINKELNQVMEQLGDARIDRQESSRQQRKAEIMESIKRLYPGSVYGRLIDLCQPTQKKYQIAVTKVLGKNMDAIIVDSEKTGRDCIQYIKEQRGEPETFLPLDYLEVKPTDEKLRELKGAKLVIDVIRYEPPHIKKALQYACGNALVCDNVEDARRIAFGGHQRHKTVALDGTLFQKSGVISGGASDLKAKARRWDEKAVDKLKEKKERLTEELKEQMKAKRKEAELRQVQSQAHGLQMRLKYSQSDLEQTKTRHLALNLQEKSKLESELANFGPRINDIKRIIQSREREMKDLKEKMNQVEDEVFEEFCREIGVRNIREFEEEKVKRQNEIAKKRLEFENQKTRLGIQLDFEKNQLKEDQDKVHMWEQTVKKDENEIEKLKKEEQRHMKIIDETMAQLQDLKNQHLAKKSEVNDKNHEMEEIRKKLGGANKEMTHLQKEVTAIETKLEQKRSDRHNLLQACKMQDIKLPLSKGTMDDISQEEGSSQGEESVSGSQRTSSIYAREALIEIDYGDLCEDLKDAQAEEEIKQEMNTLQQKLNEQQSVLQRIAAPNMKAMEKLESVRDKFQETSDEFEAARKRAKKAKQAFEQIKKERFDRFNACFESVATNIDEIYKALSRNSSAQAFLGPENPEEPYLDGINYNCVAPGKRFRPMDNLSGGEKTVAALALLFAIHSYKPAPFFVLDEIDAALDNTNIGKVANYIKEQSTCNFQAIVISLKEEFYTKAESLIGVYPEQGDCVISKVLTFDLTKYPDANPNPNEQ |  | binds | binds
